Assay results: publication doi:10.1101/2020.12.24.424330
No constants are given. Whether binding was seen depends on the method and setting. Binding seen in cells or lysates may run through a third protein. Some entries that bind do so weakly or less than the wild type.

The chains behind the UniProt entries cited, without tags or fusion partners. Residues count along the entry.
UniProt P10809, residues 27-573: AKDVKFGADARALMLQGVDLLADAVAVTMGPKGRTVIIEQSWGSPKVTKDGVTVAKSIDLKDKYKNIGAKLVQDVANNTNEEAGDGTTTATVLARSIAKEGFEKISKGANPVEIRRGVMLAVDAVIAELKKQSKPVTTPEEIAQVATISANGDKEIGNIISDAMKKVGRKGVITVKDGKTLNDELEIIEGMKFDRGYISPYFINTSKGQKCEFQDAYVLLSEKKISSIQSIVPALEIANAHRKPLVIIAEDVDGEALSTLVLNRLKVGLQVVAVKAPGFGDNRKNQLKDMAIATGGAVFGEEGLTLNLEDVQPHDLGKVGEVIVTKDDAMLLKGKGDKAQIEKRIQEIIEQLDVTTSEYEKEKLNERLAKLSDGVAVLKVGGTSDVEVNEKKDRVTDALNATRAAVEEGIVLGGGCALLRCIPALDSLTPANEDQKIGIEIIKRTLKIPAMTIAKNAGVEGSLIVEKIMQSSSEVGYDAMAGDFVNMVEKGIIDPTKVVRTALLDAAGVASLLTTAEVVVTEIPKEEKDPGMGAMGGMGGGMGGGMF

Target: HSP60 (human (endogenous in A375)) (UniProt P10809)
Experiment: co-IP

binding: binds
B1: IKKβ (protein, UniProt O14920 1-756)
chain: MSWSPSLTTQTCGAWEMKERLGTGGFGNVIRWHNQETGEQIAIKQCRQELSPRNRERWCLEIQIMRRLTHPNVVAARDVPEGMQNLAPNDLPLLAMEYCQGGDLRKYLNQFENCCGLREGAILTLLSDIASALRYLHENRIIHRDLKPENIVLQQGEQRLIHKIIDLGYAKELDQGSLCTSFVGTLQYLAPELLEQQKYTVTVDYWSFGTLAFECITGFRPFLPNWQPVQWHSKVRQKSEVDIVVSEDLNGTVKFSSSLPYPNNLNSVLAERLEKWLQLMLMWHPRQRGTDPTYGPNGCFKALDDILNLKLVHILNMVTGTIHTYPVTEDESLQSLKARIQQDTGIPEEDQELLQEAGLALIPDKPATQCISDGKLNEGHTLDMDLVFLFDNSKITYETQISPRPQPESVSCILQEPKRNLAFFQLRKVWGQVWHSIQTLKEDCNRLQQGQRAAMMNLLRNNSCLSKMKNSMASMSQQLKAKLDFFKTSIQIDLEKYSEQTEFGITSDKLLLAWREMEQAVELCGRENEVKLLVERMMALQTDIVDLQRSPMGRKQGGTLDDLEEQARELYRRLREKPRDQRTEGDSQEMVRLLLQAIQSFEKKVRVIYTQLSKTVVCKQKALELLPKVEEVVSLMNEDEKTVVRLQEKRQKELWNLLKIACSKVRGPVSGSPDSMNASRLSQPGQLMSQPSTASNSLPEPAKKSEELVAEAHNLCTLLENAIQDTVREQDQSFTALDWSWLQTEEEEHSCLEQAS
